This passage reports binding results from paper PMC7434441.

The chains behind the UniProt entries cited, without tags or fusion partners. Where a name states a change or a piece, a line headed by the entry shows the natural chain unless it says otherwise.
UniProt Q9D219: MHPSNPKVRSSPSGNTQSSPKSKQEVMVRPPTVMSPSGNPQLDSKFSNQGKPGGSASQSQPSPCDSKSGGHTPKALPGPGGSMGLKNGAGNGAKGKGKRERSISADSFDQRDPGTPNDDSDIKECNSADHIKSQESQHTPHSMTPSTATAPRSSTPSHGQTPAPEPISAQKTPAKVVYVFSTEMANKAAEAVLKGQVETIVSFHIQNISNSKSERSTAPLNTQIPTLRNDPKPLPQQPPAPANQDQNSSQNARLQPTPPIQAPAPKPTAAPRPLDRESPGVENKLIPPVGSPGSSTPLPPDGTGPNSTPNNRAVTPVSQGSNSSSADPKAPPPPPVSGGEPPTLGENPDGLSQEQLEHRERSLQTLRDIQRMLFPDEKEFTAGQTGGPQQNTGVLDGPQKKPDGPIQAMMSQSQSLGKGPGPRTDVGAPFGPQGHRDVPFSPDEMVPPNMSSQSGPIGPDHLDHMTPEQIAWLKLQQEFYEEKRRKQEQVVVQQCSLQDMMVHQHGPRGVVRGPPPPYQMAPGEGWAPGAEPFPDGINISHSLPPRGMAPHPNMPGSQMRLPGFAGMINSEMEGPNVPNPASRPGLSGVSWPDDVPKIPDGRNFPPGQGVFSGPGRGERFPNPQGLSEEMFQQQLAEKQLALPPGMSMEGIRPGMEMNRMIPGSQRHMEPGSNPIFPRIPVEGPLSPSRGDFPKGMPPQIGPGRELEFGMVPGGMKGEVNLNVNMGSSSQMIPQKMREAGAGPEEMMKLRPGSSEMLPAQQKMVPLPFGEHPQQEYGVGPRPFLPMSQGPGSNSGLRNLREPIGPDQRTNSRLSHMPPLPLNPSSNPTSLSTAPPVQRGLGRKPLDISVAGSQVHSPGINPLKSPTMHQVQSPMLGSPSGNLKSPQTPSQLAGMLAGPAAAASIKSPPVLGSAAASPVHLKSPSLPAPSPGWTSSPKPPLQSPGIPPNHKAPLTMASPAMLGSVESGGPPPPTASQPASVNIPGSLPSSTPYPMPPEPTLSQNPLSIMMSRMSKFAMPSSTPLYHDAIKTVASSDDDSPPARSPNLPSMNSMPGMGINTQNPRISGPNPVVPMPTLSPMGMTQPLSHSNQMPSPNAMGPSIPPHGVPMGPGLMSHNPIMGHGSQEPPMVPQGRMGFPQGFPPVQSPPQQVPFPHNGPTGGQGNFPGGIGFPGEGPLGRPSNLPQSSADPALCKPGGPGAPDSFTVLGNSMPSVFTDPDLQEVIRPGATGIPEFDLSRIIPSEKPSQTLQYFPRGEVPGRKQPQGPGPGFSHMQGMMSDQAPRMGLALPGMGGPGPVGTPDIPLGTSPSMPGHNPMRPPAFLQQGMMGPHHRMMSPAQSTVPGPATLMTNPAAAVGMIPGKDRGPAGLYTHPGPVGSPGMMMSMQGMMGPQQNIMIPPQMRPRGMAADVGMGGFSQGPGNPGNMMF

Results are given in words; binding and its absence hold for the method and conditions named. In cells and extracts the contact can be indirect.

The target in the test is BCL9-ΔHD1 (HD1-deleted variant of BCL9, endogenous in Bcl9/9l-ΔHD1 mouse tumors) (mouse (endogenous in mouse colorectal tumors)) (UniProt Q9D219). As to the kind of experiment: co-IP; the same anti-BCL9 immunoprecipitates of control or Bcl9/9l-ΔHD1 mouse tumor extracts, SDS-PAGE and blot probed with anti-TBX3.

B1: TBX3 (endogenous in mouse colorectal tumors) (protein, UniProt P70324 1-741)
chain: MSLSMRDPVIPGTSMAYHPFLPHRAPDFAMSAVLGHQPPFFPALTLPPNGAAALSLPGALAKPIMDQLVGAAETGIPFSSLGPQAHLRPLKTMEPEEDVEDDPKVHLEAKELWDQFHKRGTEMVITKSGRRMFPPFKVRCSGLDKKAKYILLMDIIAADDCRYKFHNSRWMVAGKADPEMPKRMYIHPDSPATGEQWMSKVVTFHKLKLTNNISDKHGFTLAFPSDHATWQGNYSFGTQTILNSMHKYQPRFHIVRANDILKLPYSTFRTYLFPETEFIAVTAYQNDKITQLKIDNNPFAKGFRDTGNGRREKRKQLTLQSMRVFEERHKKETSDESSSEQAAFNCFAQASSPAVSIVGTSNLKDLCPSEAESDAEAESKEEHGPEACDAAKISTTTAEEPGRDKGSPATRAQLFPAEPSRARDTARLDKASPDSRHSPATISSSTRVPGADERRSPGREGPVATKVDEARAIPAKDAFAPLSVQTDATAHLAQGPLPGLGFAPGLAGQQFFNGHPLFLHPGQFAMGGAFSSMAAGMGPLLATVSGASTGVSGLESTAMASAAAAQGLSGASAATLPFHLQQHVLASQGLAMSPFGSLFPYPYTYMAAAAAASTAAASSSVHRHPFLNLNSMRPRLRYSPYSIPVPVPDSSSLLATALPSMASAAGPLDGKAAALAASPASVAVDSGSELNSRSSTLSSGSVSLSPKLCSEKEAATSELQSIQRLVSGLEAKPDRSCSGSP
In the case of B1, the binding result is on record as “no binding”.
